The text below walks through data of paper doi:10.1101/825323.

By UniProt entry, the sequences of proteins in these tests, tags left out.
UniProt Q39026: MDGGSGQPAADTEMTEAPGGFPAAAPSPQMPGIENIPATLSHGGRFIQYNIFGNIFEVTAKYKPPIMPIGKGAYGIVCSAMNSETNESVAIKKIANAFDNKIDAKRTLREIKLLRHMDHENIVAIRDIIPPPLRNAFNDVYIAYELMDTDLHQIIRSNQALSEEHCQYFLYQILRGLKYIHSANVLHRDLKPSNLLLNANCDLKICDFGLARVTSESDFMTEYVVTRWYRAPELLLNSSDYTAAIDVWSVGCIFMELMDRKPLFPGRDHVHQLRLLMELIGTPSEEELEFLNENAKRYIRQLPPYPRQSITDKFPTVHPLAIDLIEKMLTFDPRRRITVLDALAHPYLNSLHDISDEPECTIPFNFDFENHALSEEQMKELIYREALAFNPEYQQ

In assay [1] the target is T1, calmodulin-binding transcription activator 3 (CAMTA3) fused with a C-terminal fragment of YFP (cYFP) (Arabidopsis thaliana) (UniProt Q8GSA7).
T1 sequence: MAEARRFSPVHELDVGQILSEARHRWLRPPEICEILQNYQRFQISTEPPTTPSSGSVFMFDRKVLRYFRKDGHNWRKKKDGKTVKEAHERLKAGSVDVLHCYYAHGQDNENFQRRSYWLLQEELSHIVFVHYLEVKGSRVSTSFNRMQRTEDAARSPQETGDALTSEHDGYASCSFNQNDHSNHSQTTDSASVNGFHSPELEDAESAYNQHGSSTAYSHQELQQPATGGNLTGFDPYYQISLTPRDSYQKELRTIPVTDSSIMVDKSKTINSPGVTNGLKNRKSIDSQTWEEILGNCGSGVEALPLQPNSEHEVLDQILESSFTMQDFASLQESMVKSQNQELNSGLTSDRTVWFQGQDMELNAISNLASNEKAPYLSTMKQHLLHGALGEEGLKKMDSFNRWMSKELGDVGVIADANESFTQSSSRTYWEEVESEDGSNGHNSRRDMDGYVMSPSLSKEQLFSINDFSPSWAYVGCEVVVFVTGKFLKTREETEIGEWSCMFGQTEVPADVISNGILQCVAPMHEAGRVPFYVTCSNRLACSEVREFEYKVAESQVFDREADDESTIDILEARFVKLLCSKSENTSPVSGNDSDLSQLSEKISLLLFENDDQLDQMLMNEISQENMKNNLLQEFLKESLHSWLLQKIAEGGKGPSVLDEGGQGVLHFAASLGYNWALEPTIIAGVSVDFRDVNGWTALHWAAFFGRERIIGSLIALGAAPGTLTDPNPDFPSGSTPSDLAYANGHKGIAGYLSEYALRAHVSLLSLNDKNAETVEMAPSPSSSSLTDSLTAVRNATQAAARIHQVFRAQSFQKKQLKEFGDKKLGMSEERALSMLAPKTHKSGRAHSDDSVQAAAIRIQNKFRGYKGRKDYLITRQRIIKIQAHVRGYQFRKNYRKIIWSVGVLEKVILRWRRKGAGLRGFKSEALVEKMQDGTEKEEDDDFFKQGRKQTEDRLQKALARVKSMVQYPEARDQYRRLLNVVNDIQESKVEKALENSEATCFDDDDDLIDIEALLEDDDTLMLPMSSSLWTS
As to the kind of experiment: split reporter.

Assay [2] addresses T2, CAMTA3 (yeast two-hybrid fusion, GAL4-based system) (Arabidopsis thaliana) (UniProt Q8GSA7).
T2 sequence: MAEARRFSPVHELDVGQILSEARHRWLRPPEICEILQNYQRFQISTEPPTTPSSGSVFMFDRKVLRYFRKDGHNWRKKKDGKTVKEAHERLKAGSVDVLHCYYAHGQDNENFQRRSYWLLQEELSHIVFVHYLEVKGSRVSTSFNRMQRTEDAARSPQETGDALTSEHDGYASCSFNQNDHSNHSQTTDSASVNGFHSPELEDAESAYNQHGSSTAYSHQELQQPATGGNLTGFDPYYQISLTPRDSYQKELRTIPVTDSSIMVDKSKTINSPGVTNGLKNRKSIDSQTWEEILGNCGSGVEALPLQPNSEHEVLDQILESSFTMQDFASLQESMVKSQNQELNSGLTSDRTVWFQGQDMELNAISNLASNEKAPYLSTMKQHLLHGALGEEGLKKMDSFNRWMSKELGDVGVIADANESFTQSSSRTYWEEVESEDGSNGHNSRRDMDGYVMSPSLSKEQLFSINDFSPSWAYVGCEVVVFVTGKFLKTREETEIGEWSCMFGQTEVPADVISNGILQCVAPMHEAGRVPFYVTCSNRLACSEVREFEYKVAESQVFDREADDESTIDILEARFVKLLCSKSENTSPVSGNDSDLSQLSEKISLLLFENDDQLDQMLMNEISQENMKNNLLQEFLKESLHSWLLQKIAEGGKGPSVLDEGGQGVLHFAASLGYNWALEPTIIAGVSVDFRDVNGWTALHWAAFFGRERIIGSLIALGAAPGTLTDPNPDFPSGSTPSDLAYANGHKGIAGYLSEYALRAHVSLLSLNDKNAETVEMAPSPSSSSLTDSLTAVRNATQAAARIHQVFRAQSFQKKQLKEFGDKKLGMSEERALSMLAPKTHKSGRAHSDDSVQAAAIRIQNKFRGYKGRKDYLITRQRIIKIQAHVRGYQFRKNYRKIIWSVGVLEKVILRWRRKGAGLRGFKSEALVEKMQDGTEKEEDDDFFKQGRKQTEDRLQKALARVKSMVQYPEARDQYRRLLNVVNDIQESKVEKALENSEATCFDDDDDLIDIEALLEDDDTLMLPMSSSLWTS
As to the kind of experiment: two-hybrid.

These are yes or no findings as the source states them, for the method shown. For part of these data: Binding seen in cells or lysates may run through a third protein. Some entries that bind do so weakly or less than the wild type. Where a sequence is shown, tags or fusion partners need not be part of it.

In the case of “MPK6 fused with an N-terminal fragment of YFP (nYFP) (from UniProt Q39026 1-395) (enzyme)”, the binding result in assay [1] is “binds”.

B1: MPK3 fused with an N-terminal fragment of YFP (nYFP) (enzyme, UniProt Q39023 1-370)
chain: MNTGGGQYTDFPAVETHGGQFISYDIFGSLFEITSKYRPPIIPIGRGAYGIVCSVLDTETNELVAMKKIANAFDNHMDAKRTLREIKLLRHLDHENIIAIRDVVPPPLRRQFSDVYISTELMDTDLHQIIRSNQSLSEEHCQYFLYQLLRGLKYIHSANIIHRDLKPSNLLLNANCDLKICDFGLARPTSENDFMTEYVVTRWYRAPELLLNSSDYTAAIDVWSVGCIFMELMNRKPLFPGKDHVHQMRLLTELLGTPTESDLGFTHNEDAKRYIRQLPNFPRQPLAKLFSHVNPMAIDLVDRMLTFDPNRRITVEQALNHQYLAKLHDPNDEPICQKPFSFEFEQQPLDEEQIKEMIYQEAIALNPTYG
B1: the binding entry in assay [1] is reported as “binds”.

B2: SR1IP1 (SR1 Interaction Protein 1) (yeast two-hybrid fusion, GAL4-based system) (protein, UniProt Q66GP0 1-604)
chain: MSAKKKDLLSSAMKRTSEWISSQEVSSDVTVHVGEASFSLHKFPLMSKCGFIKKLVSESSKDSDSTVIKIPDIPGGSEAFELAAKFCYGINFDMSTENIAMLRCAAEYLEMTEEHSVENLVVRAEAYLNEVALKSLSSSITVLHKSEKLLPIAERVKLVSRCIDAIAYMTCQESHFCSPSSSNSGNNEVVVQQQSKQPVVDWWAEDLTVLRIDSFQRVLIAMMARGFKQYGLGPVLMLYAQKSLRGLEIFGKGMKKIEPKQEHEKRVILETIVSLLPREKNAMSVSFLSMLLRAAIFLETTVACRLDLENRMGLQLGQAVLDDLLIPSYSFTGDHSMFDTDTVQRILMNYLEFEVEGVRLSNNGVDLAGDMERVGKLLENYMAEIASDRNVSLQKFIGLAELIPEQSRVTEDGMYRAVDIYLKAHPNMSDVERKKVCSLMDCQKLSREACAHAAQNDRLPVQTIVQVLYYEQQRLRGEVTNDSDSPAPPPPQPAAVLPPKLSSYTDELSKLKRENQDLKLELLKMKMKLKEFEKESEKKTSSSTISTNPSSPISTASTGKPPLPRKSFINSVSKKLGKLNPFSITPYNGRGRTKPPKDRRHSIS
On to B2, for which, in assay [2], the binding result was “no binding”.
